According to patent US20020173640A1, “ADAM polynucleotides, polypeptides, and antibodies” (Human Genome Sciences, Inc., priority 1999, published 2002):
No constants are given. Whether binding was seen depends on the method and setting. Some entries that bind do so weakly or less than the wild type.

Columns and labels:
[1] = molecular target: T1, Bovine plasma alpha-2-macroglobulin (bovine) (UniProt Q7SIH1); assay: α2-M binding / complex formation assay
T1 sequence (looked up): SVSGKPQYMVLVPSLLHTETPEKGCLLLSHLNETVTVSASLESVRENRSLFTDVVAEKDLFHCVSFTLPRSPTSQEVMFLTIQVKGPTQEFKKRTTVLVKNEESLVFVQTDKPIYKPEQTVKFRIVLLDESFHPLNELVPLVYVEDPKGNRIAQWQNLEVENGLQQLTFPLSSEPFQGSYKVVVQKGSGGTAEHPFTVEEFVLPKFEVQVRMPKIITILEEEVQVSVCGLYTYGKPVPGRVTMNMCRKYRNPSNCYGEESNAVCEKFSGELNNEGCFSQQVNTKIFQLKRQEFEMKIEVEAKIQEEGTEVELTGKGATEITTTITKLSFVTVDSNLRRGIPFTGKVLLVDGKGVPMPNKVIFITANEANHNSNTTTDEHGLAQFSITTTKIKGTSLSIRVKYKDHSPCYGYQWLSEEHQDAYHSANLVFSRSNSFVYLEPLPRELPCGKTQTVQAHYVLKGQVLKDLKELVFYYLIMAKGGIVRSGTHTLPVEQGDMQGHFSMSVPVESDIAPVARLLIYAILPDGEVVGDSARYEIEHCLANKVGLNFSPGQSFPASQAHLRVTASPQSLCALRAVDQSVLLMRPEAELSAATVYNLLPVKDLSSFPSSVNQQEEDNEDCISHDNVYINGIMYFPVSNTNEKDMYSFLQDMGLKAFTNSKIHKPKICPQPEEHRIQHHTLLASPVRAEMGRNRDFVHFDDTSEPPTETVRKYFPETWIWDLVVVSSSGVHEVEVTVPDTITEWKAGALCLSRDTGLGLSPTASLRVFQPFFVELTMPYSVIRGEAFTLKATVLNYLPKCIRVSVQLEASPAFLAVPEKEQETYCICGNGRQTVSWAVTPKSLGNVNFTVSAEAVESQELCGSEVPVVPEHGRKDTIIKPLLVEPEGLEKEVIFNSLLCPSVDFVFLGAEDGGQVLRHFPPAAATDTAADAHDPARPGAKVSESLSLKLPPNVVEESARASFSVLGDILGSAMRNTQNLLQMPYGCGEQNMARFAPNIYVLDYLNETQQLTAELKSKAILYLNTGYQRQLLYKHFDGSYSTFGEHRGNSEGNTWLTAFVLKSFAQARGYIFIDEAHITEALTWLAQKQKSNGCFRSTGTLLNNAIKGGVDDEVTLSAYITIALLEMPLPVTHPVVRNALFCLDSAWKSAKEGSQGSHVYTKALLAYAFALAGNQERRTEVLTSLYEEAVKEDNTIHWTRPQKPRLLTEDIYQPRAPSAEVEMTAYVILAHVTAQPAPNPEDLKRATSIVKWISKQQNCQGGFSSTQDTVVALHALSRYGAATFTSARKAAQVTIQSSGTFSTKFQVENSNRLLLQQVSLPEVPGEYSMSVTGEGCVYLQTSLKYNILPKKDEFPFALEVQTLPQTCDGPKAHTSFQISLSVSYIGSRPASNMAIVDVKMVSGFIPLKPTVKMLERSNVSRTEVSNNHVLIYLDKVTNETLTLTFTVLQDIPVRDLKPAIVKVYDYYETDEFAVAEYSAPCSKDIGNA

[2] = molecular target: T1, Bovine plasma alpha-2-macroglobulin (bovine); assay: α2-M cleavage assay; SDS-PAGE with silver staining; additional 800-900 kDa band stable to heat denaturation in SDS, EDTA and 2-mercaptoethanol
[3] = molecular target: T1, Bovine plasma alpha-2-macroglobulin (bovine); assay: complex formation and cleavage assays, SDS-PAGE
[4] = molecular target: T1, Bovine plasma alpha-2-macroglobulin (bovine); assay: α2-M binding assay; incubation at 37° C. for 16 h, SDS-PAGE, Western blot with anti-Flag M2 antibody

binding [1]: binds | binding [2]: binds | binding [3]: binds | binding [4]: binds
B1: Flag-tagged hADAM-19 protein (residues 26-701 of SEQ ID NO: 9) (protein)
chain: REPGWTRGSEEGSPKLQHELIIPQWKTSESPVREKHPLKAELRVMAEGRELILDLEKNEQLFAPSYTETHYTSSGNPQTTTRKLEDHCFYHGTVRETELSSVTLSTCRGIRGLITVSSNLSYVIEPLPDSKGQHLIYRSEHLKPPPGNCGFEHSKPTTRDWALQFTQQTKKRPRRMKREDLNSMKYVELYLVADYLEFQKNRRDQDATKHKLIEIANYVDKFYRSLNIRIALVGLEVWTHGNMCEVSENPYSTLWSFLSWRRKLLAQKYHDNAQLITGMSFHGTTIGLAPLMAMCSVYQSGGVNMDHSENAIGVAATMAHEMGHNFGMTHDSADCCSASAADGGCIMAAATGHPFPKVFNGCNRRELDRYLQSGGGMCLSNMPDTRMLYGGRRCGNGYLEDGEECDCGEEEECNNPCCNASNCTLRPGAECAHGSCCHQCKLLAPGTLCREQARQCDLPEFCTGKSPHCPTNFYQMDGTPCEGGQAYCYNGMCLTYQEQCQQLWGPGARPAPDLCFEKVNVAGDTFGNCGKDMNGEHRKCNMRDAKCGKIQCQSSEARPLESNAVPIDTTIIMNGRQIQCRGTHVYRGPEEEGDMLDPGLVMTGTKCGYNHICFEGQCRNTSFFETEGCGKKCNGHGVCNNNQNCHCLPGWAPPFCNTPGHGGSIDSGPMPPESVG
